Results reported in paper PMC9569509.
No constants are given. Whether binding was seen depends on the method and setting. Some binding calls cover weakened binding; strength is not graded here.

Sequences of proteins named here, by UniProt entry; tags and fusion partners are left off. A change or cut given only in a name is not applied to a line headed by its entry.
UniProt P02453: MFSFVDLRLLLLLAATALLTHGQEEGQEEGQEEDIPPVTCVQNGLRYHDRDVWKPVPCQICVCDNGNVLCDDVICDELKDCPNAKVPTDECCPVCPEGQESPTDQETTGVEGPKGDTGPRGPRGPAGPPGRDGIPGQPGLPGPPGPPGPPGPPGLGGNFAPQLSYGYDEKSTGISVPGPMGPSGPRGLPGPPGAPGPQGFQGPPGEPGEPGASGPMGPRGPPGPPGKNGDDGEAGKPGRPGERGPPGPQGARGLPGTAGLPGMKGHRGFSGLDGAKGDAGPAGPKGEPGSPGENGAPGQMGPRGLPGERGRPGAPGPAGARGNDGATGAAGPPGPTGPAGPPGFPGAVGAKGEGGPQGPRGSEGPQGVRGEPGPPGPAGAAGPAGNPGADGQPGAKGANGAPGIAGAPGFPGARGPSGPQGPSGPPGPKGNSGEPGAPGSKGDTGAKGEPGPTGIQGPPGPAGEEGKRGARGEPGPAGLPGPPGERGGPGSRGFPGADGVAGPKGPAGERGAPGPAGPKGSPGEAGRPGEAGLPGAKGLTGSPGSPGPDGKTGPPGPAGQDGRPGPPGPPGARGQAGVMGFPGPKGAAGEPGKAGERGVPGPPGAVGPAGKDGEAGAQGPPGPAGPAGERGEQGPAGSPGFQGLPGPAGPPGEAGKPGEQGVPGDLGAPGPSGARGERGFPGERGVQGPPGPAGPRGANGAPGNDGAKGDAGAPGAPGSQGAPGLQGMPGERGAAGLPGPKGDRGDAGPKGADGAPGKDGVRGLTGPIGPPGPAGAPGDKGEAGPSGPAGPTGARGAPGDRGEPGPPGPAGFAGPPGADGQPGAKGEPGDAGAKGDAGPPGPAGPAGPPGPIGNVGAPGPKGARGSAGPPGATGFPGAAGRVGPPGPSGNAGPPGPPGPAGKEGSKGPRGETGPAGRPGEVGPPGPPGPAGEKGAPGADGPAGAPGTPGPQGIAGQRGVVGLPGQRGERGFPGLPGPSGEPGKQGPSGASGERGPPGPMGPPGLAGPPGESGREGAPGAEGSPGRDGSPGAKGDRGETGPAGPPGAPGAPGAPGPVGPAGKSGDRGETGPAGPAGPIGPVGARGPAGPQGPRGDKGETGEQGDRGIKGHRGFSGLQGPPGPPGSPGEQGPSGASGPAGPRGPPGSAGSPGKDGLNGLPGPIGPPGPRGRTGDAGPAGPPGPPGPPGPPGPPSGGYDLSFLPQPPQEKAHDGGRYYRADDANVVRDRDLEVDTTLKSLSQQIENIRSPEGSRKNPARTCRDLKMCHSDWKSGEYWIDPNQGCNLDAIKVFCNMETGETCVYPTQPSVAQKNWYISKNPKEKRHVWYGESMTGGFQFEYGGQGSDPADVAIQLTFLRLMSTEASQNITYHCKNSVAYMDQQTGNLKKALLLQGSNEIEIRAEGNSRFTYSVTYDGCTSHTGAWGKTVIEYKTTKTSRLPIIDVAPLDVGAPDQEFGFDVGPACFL
UniProt P02465: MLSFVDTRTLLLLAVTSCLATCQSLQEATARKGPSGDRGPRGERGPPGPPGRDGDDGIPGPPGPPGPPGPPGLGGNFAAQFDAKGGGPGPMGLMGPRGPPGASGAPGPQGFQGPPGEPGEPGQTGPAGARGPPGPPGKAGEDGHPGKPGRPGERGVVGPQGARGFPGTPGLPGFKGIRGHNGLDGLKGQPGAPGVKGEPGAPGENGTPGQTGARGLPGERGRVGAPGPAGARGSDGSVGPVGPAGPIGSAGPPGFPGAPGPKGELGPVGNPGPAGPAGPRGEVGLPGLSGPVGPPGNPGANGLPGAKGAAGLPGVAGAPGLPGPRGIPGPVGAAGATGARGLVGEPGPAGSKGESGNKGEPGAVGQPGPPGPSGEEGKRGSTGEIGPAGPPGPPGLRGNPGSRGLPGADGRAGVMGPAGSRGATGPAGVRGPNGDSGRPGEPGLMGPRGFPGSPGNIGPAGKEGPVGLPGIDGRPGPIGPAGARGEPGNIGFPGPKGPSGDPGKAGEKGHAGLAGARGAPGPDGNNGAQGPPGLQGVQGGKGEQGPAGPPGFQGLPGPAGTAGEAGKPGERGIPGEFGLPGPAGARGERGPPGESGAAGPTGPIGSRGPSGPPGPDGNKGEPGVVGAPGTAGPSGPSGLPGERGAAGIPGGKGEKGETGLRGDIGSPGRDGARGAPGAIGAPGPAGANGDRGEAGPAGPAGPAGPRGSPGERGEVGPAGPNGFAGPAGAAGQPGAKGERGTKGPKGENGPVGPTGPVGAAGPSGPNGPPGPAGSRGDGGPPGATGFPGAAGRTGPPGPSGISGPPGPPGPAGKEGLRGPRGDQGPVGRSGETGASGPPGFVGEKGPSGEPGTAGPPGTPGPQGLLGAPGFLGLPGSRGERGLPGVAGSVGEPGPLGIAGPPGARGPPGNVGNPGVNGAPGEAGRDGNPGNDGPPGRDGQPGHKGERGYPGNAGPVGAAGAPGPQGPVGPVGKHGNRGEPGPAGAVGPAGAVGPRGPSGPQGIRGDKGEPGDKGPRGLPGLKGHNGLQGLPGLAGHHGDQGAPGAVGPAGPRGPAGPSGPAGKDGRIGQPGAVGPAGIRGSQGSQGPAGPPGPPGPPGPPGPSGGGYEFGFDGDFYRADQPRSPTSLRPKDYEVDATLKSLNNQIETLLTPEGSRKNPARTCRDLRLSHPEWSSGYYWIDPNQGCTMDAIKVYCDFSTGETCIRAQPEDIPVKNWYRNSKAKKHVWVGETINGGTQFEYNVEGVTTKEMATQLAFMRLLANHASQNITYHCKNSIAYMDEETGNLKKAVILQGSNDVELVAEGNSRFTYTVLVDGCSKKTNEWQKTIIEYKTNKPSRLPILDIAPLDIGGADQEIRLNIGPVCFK
UniProt P17301: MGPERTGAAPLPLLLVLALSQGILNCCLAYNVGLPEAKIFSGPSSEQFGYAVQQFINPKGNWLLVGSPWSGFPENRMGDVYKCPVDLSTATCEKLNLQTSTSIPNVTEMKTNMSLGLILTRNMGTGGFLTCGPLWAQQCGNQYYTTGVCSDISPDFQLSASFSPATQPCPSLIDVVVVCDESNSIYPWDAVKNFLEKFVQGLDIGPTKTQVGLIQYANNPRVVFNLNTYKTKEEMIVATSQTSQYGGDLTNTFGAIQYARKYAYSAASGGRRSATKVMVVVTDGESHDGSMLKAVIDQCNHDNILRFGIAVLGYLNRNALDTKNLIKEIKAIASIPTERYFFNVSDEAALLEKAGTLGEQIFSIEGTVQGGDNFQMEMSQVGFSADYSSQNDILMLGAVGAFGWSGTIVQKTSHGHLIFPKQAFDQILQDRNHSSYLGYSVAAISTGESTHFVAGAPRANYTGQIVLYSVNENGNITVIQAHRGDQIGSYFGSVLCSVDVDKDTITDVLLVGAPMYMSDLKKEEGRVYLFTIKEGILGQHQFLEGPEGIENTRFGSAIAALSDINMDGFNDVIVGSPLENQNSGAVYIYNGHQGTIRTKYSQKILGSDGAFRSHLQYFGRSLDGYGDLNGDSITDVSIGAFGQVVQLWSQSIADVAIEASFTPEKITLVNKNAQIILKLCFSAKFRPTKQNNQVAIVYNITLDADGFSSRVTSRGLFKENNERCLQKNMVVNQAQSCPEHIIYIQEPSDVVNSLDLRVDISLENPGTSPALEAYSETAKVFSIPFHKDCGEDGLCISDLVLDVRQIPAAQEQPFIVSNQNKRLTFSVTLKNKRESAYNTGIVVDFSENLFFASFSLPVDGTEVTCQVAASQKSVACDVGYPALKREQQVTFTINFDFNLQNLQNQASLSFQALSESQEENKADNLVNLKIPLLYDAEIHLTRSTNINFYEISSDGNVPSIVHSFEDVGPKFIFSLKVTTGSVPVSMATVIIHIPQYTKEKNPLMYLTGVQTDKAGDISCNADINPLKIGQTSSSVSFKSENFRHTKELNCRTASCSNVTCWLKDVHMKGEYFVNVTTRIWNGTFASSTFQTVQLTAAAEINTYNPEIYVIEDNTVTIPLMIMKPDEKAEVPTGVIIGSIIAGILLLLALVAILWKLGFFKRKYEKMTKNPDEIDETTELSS
UniProt Q9UKX5: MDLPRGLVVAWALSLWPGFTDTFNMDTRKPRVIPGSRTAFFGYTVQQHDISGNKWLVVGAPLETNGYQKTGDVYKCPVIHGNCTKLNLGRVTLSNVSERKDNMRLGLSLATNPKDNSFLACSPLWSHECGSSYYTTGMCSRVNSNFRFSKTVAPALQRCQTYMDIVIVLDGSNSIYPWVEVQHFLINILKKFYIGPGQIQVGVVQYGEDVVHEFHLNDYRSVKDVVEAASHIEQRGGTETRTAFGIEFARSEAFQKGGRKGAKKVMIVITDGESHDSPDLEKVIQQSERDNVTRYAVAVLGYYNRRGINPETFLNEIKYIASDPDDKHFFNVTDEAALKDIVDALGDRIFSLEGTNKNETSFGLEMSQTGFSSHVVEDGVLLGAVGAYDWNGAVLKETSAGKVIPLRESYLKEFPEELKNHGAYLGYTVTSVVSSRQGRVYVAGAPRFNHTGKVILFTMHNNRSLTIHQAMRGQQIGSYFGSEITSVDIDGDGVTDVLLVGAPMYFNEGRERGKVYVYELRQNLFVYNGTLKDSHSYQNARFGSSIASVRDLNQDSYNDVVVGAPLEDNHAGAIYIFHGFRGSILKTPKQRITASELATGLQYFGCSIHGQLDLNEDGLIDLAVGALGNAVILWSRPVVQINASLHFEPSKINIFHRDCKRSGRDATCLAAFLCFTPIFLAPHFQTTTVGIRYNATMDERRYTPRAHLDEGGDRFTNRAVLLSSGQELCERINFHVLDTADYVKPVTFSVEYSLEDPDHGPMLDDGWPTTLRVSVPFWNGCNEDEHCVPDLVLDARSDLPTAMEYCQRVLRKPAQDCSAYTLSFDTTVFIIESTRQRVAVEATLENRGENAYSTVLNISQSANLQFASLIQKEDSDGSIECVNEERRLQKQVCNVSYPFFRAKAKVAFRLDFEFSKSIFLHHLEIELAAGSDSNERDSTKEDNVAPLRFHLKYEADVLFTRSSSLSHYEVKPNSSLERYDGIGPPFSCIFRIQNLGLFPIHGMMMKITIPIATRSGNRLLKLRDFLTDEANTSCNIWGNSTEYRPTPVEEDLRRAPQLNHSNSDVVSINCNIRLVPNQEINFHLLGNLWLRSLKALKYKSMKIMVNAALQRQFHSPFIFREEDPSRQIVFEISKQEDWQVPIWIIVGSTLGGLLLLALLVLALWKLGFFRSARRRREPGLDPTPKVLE

Columns and labels:
[1] = molecular target: T1, Bovine PureCol collagen type I (bovine) (UniProt P02453+P02465); test: ELISA; solid phase assay as for the native collagens, but collagens heat-denatured (50 °C for 30 min) before immobilisation; integrin α2β1 at 20 nM, 2 mM MgCl2; both purified
[2] = molecular target: T1, Bovine PureCol collagen type I (bovine); test: ELISA; solid phase assay: collagens (50 µg/mL) or fibronectin (10 µg/mL) immobilised on a 96-well plate; integrin α2β1 in 1% BSA in PBS-T with 2 mM MgCl2, 3 h at room temperature; detected by mouse anti-human integrin α2β1 and anti-mouse HRP; Kd by Scatchard plot; both purified
[3] = molecular target: T1, Bovine PureCol collagen type I (bovine); test: cell adhesion assay; cells seeded for 40 min at 37 °C on a thin layer of fibrillar collagen (1.24 mg/mL final) in 24-well plates blocked with 2% BSA; crystal violet, absorbance at 595 nm; only the target purified
[4] = molecular target: T1, Bovine PureCol collagen type I (bovine); test: cell adhesion assay; cells seeded for 40 min at 37 °C on monomeric collagens coated at 10 µg/mL in PBS, plates blocked with 2% BSA; crystal violet, absorbance at 595 nm; only the target purified

| binding [1] | binding [2] | binding [3] | binding [4] | Substance |
| --- | --- | --- | --- | --- |
| binds | binds |  |  | recombinant human integrin α2β1 (from UniProt P17301 30-1132; P05556 21-728) (receptor) |
|  |  | binds |  | integrin α2β1 on C2C12 cells expressing human integrin α2 (from UniProt P17301 30-1181; P09055 21-798) (receptor) |
|  |  | binds | binds | integrin α11β1 on C2C12 cells expressing human integrin α11 (from UniProt Q9UKX5 23-1188; P09055 21-798) (receptor) |
